PubChem BioAssay AID1259254 – NCATS – 2017

Aim: 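Genome-wide screen for genes that prevent DNA re-replication in cancer cells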 (primary screen)
Cell system: human HCT116 colorectal cancer cells
Reagent: single siRNA against human genes
Duration: 3 days
Measured: 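Imaged Hoechst DNA stain sorts each cell into a cycle phase by DNA amount; per plate, G2 fraction set to 0% for non-targeting and 100% for GMNN siRNA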
Scale: G2 robust z-score and G2 cells, % of GMNN control: higher = more G2 cells, more excess DNA replication; raw share of cells in G2: higher = larger share of cells with G2 DNA content
Hit rule: 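Active siRNAs have a G2 robust z of 5 or more median absolute deviations over the median, which in these data means about 38% or higher of GMNN control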
The whole screen tested about 59,000 reagents; shown is a part drawn at random. In the full data, about 1,550 (2.6%) were called active. 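G2 share is only a proxy for re-replication; each gene was hit by three separate siRNAs, and active genes were retested.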 Raw values are not corrected between plates. Unmarked entries are inactive. Not stated in the record: the amount of reagent.

Target gene	PubChem SID	G2 robust z-score	G2 cells, % of GMNN control	raw share of cells in G2 (%)
HSBP1	SID160733062	0.879	9.15	7.44
HSBP1	SID160733063	0.659	7.6	6.5
HSBP1	SID160775332	-0.242	1.27	5.9
LRRN3	SID160742017	1.45	13.2	8.85
LRRN3	SID160742018	2.35	19.5	11.4
LRRN3	SID160742019	0.899	9.29	10.2
ZW10	SID160721668	0.896	9.27	8.75
ZW10	SID160721669	-1.03	-4.31	3.75
ZW10	SID160721670	1.03	10.2	8.36
FNDC3B	SID160747961	-0.479	-0.405	4.4
FNDC3B	SID160747962	-0.118	2.14	5.57
FNDC3B	SID160747963	3.63	28.5	10.2
CA10	SID160745333	1.35	12.4	8.89
CA10	SID160745334	-1.14	-5.03	2.24
CA10	SID160745335	-0.126	2.08	7.34
OR10S1	SID160761380	-0.5	-0.549	3.38
OR10S1	SID160761381	-0.859	-3.08	2.08
OR10S1	SID160761382	2.83	22.9	10.5
DDX60L	SID160753946	-0.0659	2.5	5.15
DDX60L	SID160753947	2.49	20.5	9.43
DDX60L	SID160753948	0.523	6.65	5.03
TACC2	SID160728781	0.928	9.49	8.71
TACC2	SID160728782	0.638	7.46	7.22
TACC2	SID160728783	0.635	7.44	5.96
C1QTNF9B	SID160733193	0.0191	3.1	5.96
C1QTNF9B	SID160765723	-0.627	-1.45	3.28
C1QTNF9B	SID160765724	-0.536	-0.806	3.05

Reprinted from the entries so far for reference:
Target gene	PubChem SID	G2 robust z-score	G2 cells, % of GMNN control	raw share of cells in G2 (%)
ZW10	SID160721670	1.03	10.2	8.36
FNDC3B	SID160747961	-0.479	-0.405	4.4
FNDC3B	SID160747962	-0.118	2.14	5.57
FNDC3B	SID160747963	3.63	28.5	10.2
CA10	SID160745333	1.35	12.4	8.89
CA10	SID160745334	-1.14	-5.03	2.24

More reagents follow:
Target gene	PubChem SID	G2 robust z-score	G2 cells, % of GMNN control	raw share of cells in G2 (%)
BARX1	SID160744730	0.334	5.32	6.35
BARX1	SID160744731	6.3 (active)	47.3	27.2
BARX1	SID160744732	-0.956	-3.76	2.77
CEBPZ	SID160726180	-0.855	-3.05	2.51
CEBPZ	SID160726184	0.96	9.72	10.3
CEBPZ	SID160726190	0.215	4.48	5.21
ALDOA	SID160775410	2.08	17.6	11.3
ALDOA	SID160775511	-1.16	-5.18	2.95
ALDOA	SID160775604	0.238	4.64	5.72
TMEM160	SID160724450	0.013	3.06	5.56
TMEM160	SID160733576	1.66	14.7	8.04
TMEM160	SID160742600	0.65	7.54	6.3
NECAB1	SID160747542	-0.75	-2.31	3.39
NECAB1	SID160747543	3.82	29.8	18
NECAB1	SID160747544	1.17	11.2	8.32
GBP4	SID160755198	2.13	18	11.3
GBP4	SID160755199	5.04 (active)	38.4	14.8
GBP4	SID160755200	-0.943	-3.67	0.746
ZNF37A	SID160719066	0.11	3.74	4.77
ZNF37A	SID160719067	0.251	4.73	8.09
ZNF37A	SID160719068	-0.976	-3.9	1.71
